From PubChem BioAssay AID504444 (National Center for Advancing Translational Sciences (NCATS), 2011)
Values joined by “and” are separate entries in the source; they are usually repeats but may differ in a detail not shown here. Equal values may be shown once. Among all 360,000 compounds or so, about 7,500 (2.1%) were called active. The inconclusive results got no clear call from the source; some entries with a clear call stand among them for comparison. The call rests on the fitted dose curve; in most records, active means well fitted inhibition curve with a large enough effect; inconclusive means small, poorly fitted or top-dose-only effect, or effect the other way; inactive means flat fitted curve, though single readings scatter. Potencies of inconclusive entries are doubtful fits and often do not repeat.

Test: Nrf2 qHTS screen for inhibitors; further: nearly all actives have a fitted effect of over 60% in size
Details: A549 ARE-Fluc reporter, luciferase luminescence, 18-24 h; series mostly up to 46 µM
Procedure, shortened: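 Two sequential reads on A549 ARE_Fluc cells exposed to compound for 18-24 h: a CellTiter-Fluor fluorescence read for viability, then a luciferase luminescence read for Nrf2/ARE activity.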
Potency means the concentration at half of the fitted maximal effect.

SMILES	Potency
S=c1[nH]nc(-c2cc(-c3ccccc3)n[nH]2)n1/N=C/c1cccc(Cl)c1	inconclusive: 29.1 µM [falling, partial curve]
N/C(=N\OC(=O)c1cccc(F)c1)c1cccc([N+](=O)[O-])c1	inconclusive: 23.1 µM [activator, single point]
CC(Sc1ncnc2ccccc12)C(=O)Nc1ccc2c(c1)OCCO2 (stereo not given)	inconclusive: 25.9 µM [falling, partial curve, poor fit]
CCCC[C@@H]1CCCO[C@@](C(=O)NCc2ccc(S(C)(=O)=O)cc2)(C(F)(F)F)C1	inactive
CCOc1cc(/C=N/Nc2ncc(C)c(=O)[nH]2)ccc1O	inconclusive: 6.51 µM [activator, partial curve]
O=C(N/N=C\c1cccnc1)c1ccccc1O	inconclusive: 25.9 µM [activator, single point]
CC(=O)c1c(C)[nH]c(C(=O)Nc2nc(C)cs2)c1C	inconclusive: 0.291 µM [activator, full curve]
COc1cc(C)ccc1N(CCCN1C(=O)c2cccc3cccc(c23)C1=O)C(=O)c1cccs1	inconclusive: 11.6 µM [falling, partial curve, poor fit]
CC(=O)c1c(C)[nH]c(C(=O)OCc2ccc(Br)cc2)c1C	inconclusive: 23.1 µM [falling, partial curve]
O=C(NC(=S)NCc1ccco1)c1ccccc1	inconclusive: 8.2 µM [activator, partial curve, poor fit]
O=C(c1ccc(Cl)cc1)N1CCN(S(=O)(=O)/C=C/c2ccccc2)CC1	inconclusive: 18.4 µM [falling, single point]
O=C(COc1ccc([N+](=O)[O-])cc1)N/N=C/c1cc([N+](=O)[O-])ccc1N1CCOCC1	inconclusive: 20.6 µM [falling, partial curve, poor fit]
COc1ccc(NC(=O)N(C)C[C@H]2Oc3c(NS(=O)(=O)c4cccs4)cccc3C(=O)N([C@H](C)CO)C[C@@H]2C)cc1	inconclusive: 18.4 µM [activator, single point]
COc1ccc(OC)c(CCNc2ncnc3onc(C)c23)c1	inconclusive: 11.6 µM [falling, partial curve, poor fit]
Nc1c(C(=O)Nc2ccccc2F)sc2nc(Cc3ccccc3)cc(C(F)(F)F)c12	inconclusive: 8.2 µM [falling, partial curve, poor fit]
Nc1nonc1-n1nnc(C(=O)N/N=C/c2ccc3c(c2)OCO3)c1-c1ccccc1	inconclusive: 29.1 µM [activator, single point]
COc1ccc(C2Nc3ccccc3C(=O)N2Cc2ccccc2C)cc1COc1ccc(NC(C)=O)cc1 (stereo not given)	inconclusive: 20.6 µM [falling, partial curve]
Cc1ccccc1Nc1nc(N)nc(COC(=O)c2cccn2C)n1	inconclusive: 8.2 µM [activator, partial curve]
CC(C)OCCCNc1ncnc2c1cnn2-c1ccccc1	inconclusive: 0.411 µM [activator, full curve]
Cc1cccc(N2CCN(C(=O)c3cccc(-n4c(C)nc5cccnc54)c3)CC2C)c1 (stereo not given)	inconclusive: 29.1 µM [falling, single point]

A run of entries taken from the entries so far, as a working copy:
SMILES	Potency
Cc1ccccc1Nc1nc(N)nc(COC(=O)c2cccn2C)n1	inconclusive: 8.2 µM [activator, partial curve]
CC(C)OCCCNc1ncnc2c1cnn2-c1ccccc1	inconclusive: 0.411 µM [activator, full curve]

Next part:

SMILES	Potency
Nc1ccc(-n2nc3ccccc3n2)cc1	inconclusive: 29.1 µM [activator, single point]
COc1ccc(NS(=O)(=O)c2ccc(O)c(C(=O)OCC(=O)NC3CCCCC3)c2)cc1	inactive
N#CCOc1nc(N2CCCCC2)nc(N2CCCCC2)n1	inconclusive: 29.1 µM [falling, single point]
N#Cc1cc(-c2ccccc2)nc(Oc2ccccc2)n1	inconclusive: 20.6 µM [falling, partial curve, poor fit]
COCCCNC(=O)c1c(N)n(/N=C/c2ccccn2)c2nc3ccccc3nc12	inconclusive: 13 µM [falling, partial curve, poor fit]
CCc1ccc(C(=O)Nc2cc(C)ccc2F)s1	inconclusive: 6.51 µM [activator, partial curve]
CCN(CC)c1ccc(/C=N/NC(=O)c2cccc(S(=O)(=O)N3CCOCC3)c2)cc1	inconclusive: 29.1 µM [falling, single point]
O=C1CCCC2=C1C1(CCCC1)N=C(Nc1nc3cc4ccccc4cc3o1)N2	inactive
O=c1cc(-c2ccc(O)c(O)c2)oc2c1ccc1ccccc12	inactive
Cc1ccc(NS(=O)(=O)c2ccc(NC(=O)C(C)Sc3ccc(Cl)cc3)cc2)c(C)c1 (stereo not given)	inactive
CC1(O)c2ccccc2C(=O)N1Cc1ccccc1 (stereo not given)	inactive
NS(=O)(=O)c1ccc(CCNC(=O)CN2CCN(c3ccc(F)cc3)CC2)cc1	active: 16.4 µM
CCCc1cc2c(cc1NC(=O)c1ccccc1C)OCO2	inconclusive: 9.2 µM [activator, partial curve]
COc1ccc(NC(=O)CCCN2C(=O)C(c3ccccc3)Oc3cccnc32)cc1OC (stereo not given)	inconclusive: 29.1 µM [falling, single point] and inconclusive: 18.4 µM [falling, single point]
COc1ccc(CNC(=O)C2CCCN(S(=O)(=O)c3cc(C)ccc3OC)C2)cc1 (stereo not given)	inconclusive: 23.1 µM [falling, single point]
Cc1cccc(C)c1N/C=C/c1onc(C)c1[N+](=O)[O-]	inactive
O=C(c1ccccc1NS(=O)(=O)c1cccc([N+](=O)[O-])c1)N1CCCC1	inconclusive: 23.1 µM [falling, single point]
COc1cccc(C(=O)Oc2cc3c4c(c2)C(C)=CC(C)(C)N4C(=O)C3=O)c1	inconclusive: 18.4 µM [falling, single point]
CSc1ccccc1NC(=O)COc1ccc(Cl)cc1Cl	inconclusive: 25.9 µM [activator, single point]
CC(C)C[C@H]1CNC(=S)N1CC1CCCN1C[C@H](Cc1ccccc1)N1C[C@H](Cc2ccc(O)cc2)N(CC2CCCCCC2)C1=S (stereo not given in full)	inconclusive: 32.6 µM [falling, single point]
